In all, about 33,000 sequences were measured (“E-score (-0.5 to 0.5)”: median about -0.015, highest 2% from about 0.3 on). The list shows a part of the results.
molecular target: T1, Abf1 (UniProt P14164); assay: PBM E-score (8-mer binding enrichment) (E-score (-0.5 to 0.5)); higher = stronger / more preferred TF binding; details: protein concentration: 200 nM; construct: GST-full length
T1 sequence: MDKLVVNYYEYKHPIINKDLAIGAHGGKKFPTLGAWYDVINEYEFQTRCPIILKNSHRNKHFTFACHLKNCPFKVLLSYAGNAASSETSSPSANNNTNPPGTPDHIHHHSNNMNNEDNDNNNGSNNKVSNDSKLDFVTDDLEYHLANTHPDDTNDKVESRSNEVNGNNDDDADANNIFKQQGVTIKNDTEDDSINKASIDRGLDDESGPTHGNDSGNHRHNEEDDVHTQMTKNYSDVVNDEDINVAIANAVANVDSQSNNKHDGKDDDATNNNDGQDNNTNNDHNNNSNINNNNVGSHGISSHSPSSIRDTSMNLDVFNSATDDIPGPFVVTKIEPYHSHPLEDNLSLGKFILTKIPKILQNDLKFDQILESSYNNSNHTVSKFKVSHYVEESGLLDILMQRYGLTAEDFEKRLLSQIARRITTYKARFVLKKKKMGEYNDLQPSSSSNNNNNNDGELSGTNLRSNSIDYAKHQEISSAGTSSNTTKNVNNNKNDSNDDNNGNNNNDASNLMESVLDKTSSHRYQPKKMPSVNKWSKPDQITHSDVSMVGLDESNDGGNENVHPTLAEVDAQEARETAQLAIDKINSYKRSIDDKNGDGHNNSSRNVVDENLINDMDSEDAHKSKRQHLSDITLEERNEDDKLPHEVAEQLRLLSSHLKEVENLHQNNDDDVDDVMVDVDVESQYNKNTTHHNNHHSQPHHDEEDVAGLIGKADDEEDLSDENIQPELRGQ
Method in brief: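 E-scores (a modified Wilcoxon-Mann-Whitney statistic) were assigned by the Universal PBM Analysis Suite to every ungapped eight-base word pooled with its reverse complement. The input came from universal all-10-mer Agilent arrays made double-stranded by primer extension and probed with GST-tagged yeast transcription factors at about 100-200 nM. Fluorescent anti-GST detected bound protein, and masliner normalised the scans.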

Sequence	PBM E-score
ACGGTGGC	0.1
ACGATGAA	0.2
CAAATGGC	0.05
ACCCGGTG	-0.0413
GATAACCC	0.0444
ATTGTCCC	-0.0994
CGGTCTGC	-0.139
AATTCCAT	0.125
CGACGAAA	0.363
GACTTGGA	-0.165
GTGTAACA	0.197
TCGTAAGA	0.154
AAGAGAAT	-0.016
ATTGCTAC	0.106
GTAGTCAA	0.106
AAGTATGA	0.0982
AAGTGTTC	-0.0135
CGGGAACC	-0.245
CCGAACAC	-0.0335
ACAAGGTA	0.0562
GGATAGCC	-0.097
AGTTAAAA	0.0966
GCCCCTAC	-0.242
AATAGCGC	0.0396
CTCCAGCA	-0.166

Sequence	PBM E-score
ATGACCAA	0.239
AACACTCG	-0.00319
GGTCCACA	-0.141
CTACTGGC	-0.0885
CTGGCCCC	-0.152
CTCTGAGC	-0.165
AAAGGACC	-0.147
AGGCTACT	-0.1
GATTCACC	-0.071
GTCGACCA	0.0601
AGCGCACC	-0.151
ACGGTCGC	0.134
AGGGTGTA	-0.123
AAGATCGA	-0.00469
CTCGTCCA	0.147
AATGTGAT	0.19
GTCATGAA	0.124
ATGTCGAC	0.181
GCCTCGCC	-0.261
AAATGAGG	0.0174
ACCTTTAA	-0.0582
AAACTCCG	0.0887
GTATATAC	0.184
CTGTCATC	0.108
CATTAAGC	-0.0212

Sequence	PBM E-score
TCGACGCA	0.113
AAACCCCG	-0.0584
GATTACTA	-0.0127
CCGTACTA	0.338
ACGAGCAT	0.00886
GCGGGCTA	-0.115
CCAGGGTA	-0.108
CACTAGCG	0.051
ATTCTCGG	0.0995
CAAGCCTA	-0.0263
CTTTGGAC	-0.0654
GTCACCAC	0.278
ACCAACGA	0.065
AGCTTTCG	-0.0181
CAAGGTCC	-0.106
TCCCGAGA	0.11
GCACAAGA	0.00987
ACGACACG	0.223
GTAACCCA	0.0173
AGACTTAG	-0.158
TATCCCAA	0.0219
ACGTTACG	0.133
TATGAGGA	-0.0672
AGTTCGGC	-0.0604
TACATTGA	0.058

Sequence	PBM E-score
AGGAACAA	-0.0887
ACTAAGAA	-0.0373
ACGAGTCC	0.0176
GGCCATAC	-0.0756
GGACCAAA	0.0953
ACGCTTAC	-0.132
CATCGTAG	0.117
CCTAGTTA	0.0535
CCCACTCA	-0.0863
ATCTATCC	0.0607
AGGTATCA	0.145
CATATCAC	0.389
ATTGTAGC	-0.0285
ACAAAATA	0.0246
GATGAATC	0.2
ACTCTAAC	-0.148
CCGAACAG	-0.0735
CGTGTAGC	0.0125
CTCGCGGC	-0.0716
CTATACTC	-0.112
AGCCGCCC	-0.0951
CGATTCCC	-0.154
AGTGAGTG	0.0115
AGTCGCAC	-0.139
AATTCTTG	0.0803

Sequence	PBM E-score
CAACCCGC	-0.122
CGCCCAAA	0.0323
ACTCTCCA	0.0138
ATCCCTTC	-0.0393
AACGACGC	0.0599
CGCTGAAC	0.144
GCCAGTGA	0.115
CACTTACG	0.151
AACGCCTG	-0.0455
ACATCACC	0.353
ACAATATG	0.105
CCATAAAA	0.0514
GACAGCCA	0.0192
TCACAGAA	0.0294
CTTGAACC	0.00344
AATATATT	0.159
ACCCGGCC	-0.131
AAAGAGTA	-0.0449
AGCTTTGA	-0.124
CGGAAGTC	0.0627
CTTTGTGA	0.0277
CCTTCTCA	-0.141
GATTGGTA	0.109
AGGCAACG	-0.135
CCTGAAAG	0.192

Sequence	PBM E-score
GACCACAC	0.0366
GACCCCTC	-0.387
GGCCCTAC	-0.184
GCGCGCGC	0.197
AACCCGAT	0.129
CAGGGTAC	-0.116
CAGCCGGC	-0.0851
CTAACCAA	0.0195
CCTGACCC	-0.263
CAGCGCTA	-0.0154
TACGGTAA	0.124
GGGAGTGA	0.152
AGAAGGCT	-0.206
AGGTTATA	-0.0486
ATAAAGTC	0.18
CCTCGAAG	0.092
GCTGAACA	-0.012
ATACTGAT	0.155
CCGTAGTA	0.119
GGCTTCAA	-0.133
ATTTCGCA	0.123
AAGGTCTG	-0.148
CCAATTCG	0.0107
AGTAAGCC	-0.154
CTCACATC	0.0864

Sequence	PBM E-score
CCCAAAGG	-0.158
AGATAAGC	-0.0966
CGTAAGTA	0.284
ACAAGTAG	-0.271
AACTCTAC	-0.203
CAACCAAA	0.0361
AGGGAGAA	0.041
CCACTACA	-0.0773
CCTCTTAA	-0.0892
CATTGCTA	0.176
AACCGTTA	-0.0271
GACCCATA	0.0597
GATAATGA	0.237
AAATGCGC	-0.0662
GTGCAATA	0.00211
CATCGTAA	0.106
ACTCTATA	0.145
GGTCATCA	0.196
ACTCACGC	-0.0481
AGGTGTCC	0.0332
AAGAAAGT	-0.019
AGTAAAGC	-0.0263
TCCTTTCA	-0.0567
CCTGAGAC	-0.128
ACGATCGG	0.168

Sequence	PBM E-score
CGCCGTTC	0.331
AGGGACCC	-0.271
GAGCTACA	-0.256
CATATATA	0.0278
AGACAATG	0.0762
AACAGGAC	0.0871
AACCGCCG	-0.089
CGGACGAC	0.343
ATATGTAA	0.068
ATAATGGG	0.115
CAAGATAA	0.227
AGACCAGC	-0.283
ACTCCGTA	0.149
CAAGTTCG	-0.311
AGAGATCA	0.138
CTGTAATC	-0.0577
ATCGAAAT	0.0958
ACGGAACT	0.188
CAAGATGA	0.118
TAACGGGA	0.00652
ACCCAAGG	0.0372
TATCAGCA	0.092
ATCGACTA	0.029
ATCTGGGC	-0.214
ATTCTGCA	-0.00808

Looked up one by one from the entries so far:
Sequence	PBM E-score
TAACGGGA	0.00652
CGCCGTTC	0.331
TATCAGCA	0.092
AGACAATG	0.0762
AGGGACCC	-0.271
ACCCAAGG	0.0372

Next part

Sequence	PBM E-score
GCTCCGAC	-0.327
ACCTAAAG	-0.0062
GTCAAGAC	-0.0184
CCAAACCG	-0.0285
ATGCGCCA	-0.0239
AGACGTTC	0.0192
ACGGTTCC	0.136
GACCGCAC	0.0148
TGGCACCA	-0.221
CTTATCGC	0.108
AGCGCGAT	0.229
ATTGTGGG	-0.127
GCAGTCCA	-0.0162
CATGCTAA	0.0181
GACGCTCC	-0.234
CACCTGCA	-0.00768
GTAGCCGA	-0.0489
ACCCTTTC	-0.112
ACAGACGC	-0.0922

From the supplement of paper PMC3334620
